Assay results as given in PMC12948193.
For at least one entry, the source does not settle the construct or the ends of the probe. A negative result means that nothing was seen under these conditions.

Test system: ARF10 DNA-binding domain (6xHis-ARF10)
Assay: competition with a labelled probe
Details: 200-fold excess vs N1, complex unchanged; EMSA: labeled probe 0.2 uM, LightShift Chemiluminescent EMSA Kit binding buffer (salt and pH not given), 25 C, 30 min; 4% native PAGE, 0.5x TBE; recombinant protein; protein details: 6xHis (pCold-His)

**Q.** Does “ATGGGTAGTCTCAAAAAAAATAAAGGGGGAGGTGA (double strand) [pNPF2.13-ARF10-probe2-M-competitor]” bind?
**A.** no binding
